This test concerns nude mice, HT29 intrarenal xenograft, tumor weight T/C. The experiment in a line: NCI In Vivo Anticancer Drug Screen. Data for tumor model HT29;CX-1 Human Adenocarcinoma (MER+) (intrarenal inoculation) in NU/NU Swiss (nude) mice. As to conditions: T/C endpoint: mean tumor weight change, higher T/C = larger tumour. In short, it runs like this: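 Tumor-bearing mice received test compound or vehicle, and tumor size or survival was recorded. Values are the treated-group measurement divided by the vehicle-treated control measurement.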

Data on 23 molecules can be found in PubChem BioAssay AID206 (DTP/NCI, 2004).

The list is a part of this screen's results and no random one: it gathers tests that were run many times, whatever their T/C, doses with no T/C, and many T/C values between a quarter and a half above the control. Further doses and runs are listed elsewhere. T/C is the treated group as % of the vehicle group. Schedules are NCI's codes, read here as Q, the interval in days (D) or hours (H), X, the number of doses. Some entries give survivors of the animals treated and no T/C: the source holds a T/C of zero for them, seemingly a mark for toxic or unscored doses. Counts of survivors are from the toxicity check (mostly the fifth day) where no day follows; animals may have died later. Some doses were run more than once; the results are listed from low to high.

Regarding `COc1cc(NCCCCCCCNC(C)C)c2nccc(C)c2c1`, the survivor count (dose: 150.0 mg/kg/injection, schedule: Q04DX004 (sc), vehicle: saline) was 3 of 6 on day 15.
Take `Cc1cc(NCCCN(C)C)c2ccc3c(ccc4c(NCCCN(C)C)cc(C)nc43)c2n1`: the survivor count by setting is: (dose: 18.75 mg/kg/injection, schedule: Q04DX004 (sc), vehicle: saline with Tween-80) 3 of 6 on day 15; (dose: 37.5 mg/kg/injection, schedule: Q04DX004 (sc), vehicle: saline with Tween-80) 0 of 6 on day 15; (dose: 75.0 mg/kg/injection, schedule: Q04DX004 (sc), vehicle: saline with Tween-80) 0 of 6 on day 15; (dose: 150.0 mg/kg/injection, schedule: Q04DX004 (sc), vehicle: saline with Tween-80) 0 of 6 on day 15; (dose: 300.0 mg/kg/injection, schedule: Q04DX004 (sc), vehicle: saline with Tween-80) 0 of 6 on day 15; (dose: 600.0 mg/kg/injection, schedule: Q04DX004 (sc), vehicle: saline with Tween-80) 0 of 6 on day 15.
For `Clc1ccc2nnnn2n1`, the survivor count by setting is: (dose: 400.0 mg/kg/injection, schedule: Q04DX004 (sc), vehicle: saline with Tween-80) 3 of 6 on day 15; (dose: 800.0 mg/kg/injection, schedule: Q04DX004 (sc), vehicle: saline with Tween-80) 1 of 6 on day 15.
For the molecule `Cc1cc(N2C(=O)CCSC2=S)ccc1Cl`, the survivor count (dose: 600.0 mg/kg/injection, schedule: Q04DX004 (sc), vehicle: Klucel (hydroxypropylcellulose) (HPC)) was 1 of 6 on day 15.
`COc1cc(NS(C)(=O)=O)ccc1Nc1c2ccccc2nc2ccccc12`: the survivor count is, setting by setting: (dose: 0.75 mg/kg/injection, schedule: Q01DX010 (sc), vehicle: other) 0 of 3 on day 11; (dose: 1.5 mg/kg/injection, schedule: Q01DX010 (sc), vehicle: lactic acid) 1 of 3 on day 11; (dose: 1.5 mg/kg/injection, schedule: Q01DX010 (sc), vehicle: other) 0 of 3 on day 11; (dose: 3.0 mg/kg/injection, schedule: Q01DX010 (sc), vehicle: lactic acid) 0 of 3 on day 11; (dose: 3.0 mg/kg/injection, schedule: Q01DX010 (sc), vehicle: other) 0 of 3 on day 11; (dose: 6.0 mg/kg/injection, schedule: Q01DX010 (sc), vehicle: lactic acid) 0 of 3 on day 11. Where the note is “dose: 6.0 mg/kg/injection, schedule: Q01DX010 (sc), vehicle: other”, the survivor count was 1 of 3 on day 11.
On to `C1CC[N-]CC1.C1CC[N-]CC1.C1CC[N-]CC1.[Cl][Rh]([Cl])[Cl]`, for which the survivor count (dose: 600.0 mg/kg/injection, schedule: Q04DX004 (sc), vehicle: saline) was 0 of 6 on day 15 and the survivor count (dose: 1200.0 mg/kg/injection, schedule: Q04DX004 (sc), vehicle: saline) was 0 of 6 on day 15.
With `OC1(CSc2ccccc2)CCCCC1`, the T/C was 126 % of control (dose: 200.0 mg/kg/injection, schedule: Q04DX004 (sc), vehicle: saline with Tween-80, evaluated on day 15); 136 % of control (dose: 400.0 mg/kg/injection, schedule: Q04DX004 (sc), vehicle: saline with Tween-80, evaluated on day 15); 135 % of control (dose: 800.0 mg/kg/injection, schedule: Q04DX004 (sc), vehicle: saline with Tween-80, evaluated on day 15).
With `CCN(CC)CCCNc1nccc2c(C)c3[nH]c4ccncc4c3cc12`, the survivor count (dose: 20.0 mg/kg/injection, schedule: Q01DX010 (sc), vehicle: other) is listed as 1 of 3 on day 11.
On to `Cc1cc(C)c(-c2cc(O)c(C)cc2O)c(C)c1`, for which the T/C (dose: 600.0 mg/kg/injection, schedule: Q04DX004 (sc), vehicle: Klucel (hydroxypropylcellulose) (HPC), evaluated on day 15) is 128 % of control.
For the molecule `O=Cc1c(O)c2ccccc2[nH]c1=O`, the survivor count (dose: 2400.0 mg/kg/injection, schedule: Q04DX004 (sc), vehicle: saline with Tween-80) was 0 of 6 on day 15.
Take `O=C(O)C1CC(c2ccccc2)=NN1c1ccccc1` (centres undefined): the survivor count (dose: 600.0 mg/kg/injection, schedule: Q04DX004 (sc), vehicle: water) is on record as 1 of 6 on day 15.
With `C1CCC2OCCOCCOC3CCCCC3OCCOCCOC2C1` (centres undefined), the survivor count is recorded as 0 of 6 on day 15 (dose: 150.0 mg/kg/injection, schedule: Q04DX004 (sc), vehicle: Klucel (hydroxypropylcellulose) (HPC)) and 0 of 6 on day 15 (dose: 300.0 mg/kg/injection, schedule: Q04DX004 (sc), vehicle: Klucel (hydroxypropylcellulose) (HPC)).
`c1cc[c]([Sn][c]2ccccc2)cc1`: the T/C (dose: 40.0 mg/kg/injection, schedule: Q01DX010 (sc), vehicle: saline, evaluated on day 11) was 129 % of control.
In the case of `CC[PH+](CC)CC[S-].CC[PH+](CC)CC[S-].[Au+].[Au+]`, the T/C reads like this: (dose: 20.0 mg/kg/injection, schedule: Q04DX004 (sc), vehicle: Klucel (hydroxypropylcellulose) (HPC), evaluated on day 15) 145 % of control; (dose: 40.0 mg/kg/injection, schedule: Q04DX004 (sc), vehicle: Klucel (hydroxypropylcellulose) (HPC), evaluated on day 15) 139 % of control; (dose: 80.0 mg/kg/injection, schedule: Q04DX004 (sc), vehicle: Klucel (hydroxypropylcellulose) (HPC), evaluated on day 15) 149 % of control.
Regarding `Cc1c2cc[n+](C)cc2c(C)c2c1[nH]c1ccc(O)cc12`, the survivor count is, setting by setting: (dose: 5.0 mg/kg/injection, schedule: Q04DX004 (sc), vehicle: water) 2 of 6 on day 15; (dose: 10.0 mg/kg/injection, schedule: Q04DX004 (sc), vehicle: water) 0 of 6 on day 15.
For `COc1cccc2c1C(=O)c1c(O)c3c(c(O)c1C2=O)C[C@@](O)(C(=O)CO)C[C@@H]3OC1CC(OC(C)=O)C(OC(C)=O)C(C)O1` (some centres undefined), the survivor count reads like this: (dose: 50.0 mg/kg/injection, schedule: Q01DX010 (sc), vehicle: distilled water + Tween-80) 0 of 3 on day 11; (dose: 100.0 mg/kg/injection, schedule: Q01DX010 (sc), vehicle: distilled water + Tween-80) 0 of 3 on day 11; (dose: 200.0 mg/kg/injection, schedule: Q01DX010 (sc), vehicle: distilled water + Tween-80) 0 of 3 on day 11.
As for `CCCCCCCCCCS(=O)CC(CO)NC(=O)/C=C/c1c(C)[nH]c(=O)[nH]c1=O` (centres undefined), the survivor count (dose: 75.0 mg/kg/injection, schedule: Q04DX004 (sc), vehicle: distilled water + Tween-80) is on record as 0 of 6 on day 15.
Turning to `c1ccc2sc(SSN3CC4CCC(CC4)C3)nc2c1`, the T/C (dose: 100.0 mg/kg/injection, schedule: Q01DX010 (sc), vehicle: saline with Tween-80, evaluated on day 20) was 127 % of control.
For the molecule `C=C1CC2(OC1=O)C(=O)N(C)c1ccc(I)cc12` (centres undefined), the survivor count is given as 3 of 6 on day 15 (dose: 600.0 mg/kg/injection, schedule: Q04DX004 (sc), vehicle: suspension in saline); 2 of 6 on day 15 (dose: 1200.0 mg/kg/injection, schedule: Q04DX004 (sc), vehicle: suspension in saline); 1 of 6 on day 15 (dose: 2400.0 mg/kg/injection, schedule: Q04DX004 (sc), vehicle: suspension in saline).
Regarding `NC(CCC(=O)NC(CS)C(=O)NCC(=O)O)C(=O)O` (centres undefined), the T/C (dose: 1200.0 mg/kg/injection, schedule: Q04DX004 (sc), vehicle: saline, evaluated on day 15) was 127 % of control.
Regarding `COC(C(=O)C(O)C(C)O)C1Cc2cc3cc(OC4CC(OC(C)=O)C(OC5CC(O)C(OC)C(C)O5)C(C)O4)cc(O)c3c(O)c2C(=O)C1OC1CC(OC2CC(OC3CC(C)(O)C(OC(=O)C(C)C)C(C)O3)C(O)C(C)O2)C(O)C(C)O1` (centres undefined), the survivor count was 0 of 3 on day 20 (dose: 4.0 mg/kg/injection, schedule: Q01DX010 (sc), vehicle: saline with Tween-80) and 0 of 3 on day 15 (dose: 8.0 mg/kg/injection, schedule: Q04DX004 (sc), vehicle: saline with Tween-80).
Turning to `[Cl][Pt+2][Cl].[NH-]CC1(C[NH-])CCC1`, the survivor count (dose: 50.0 mg/kg/injection, schedule: Q04DX004 (sc), vehicle: suspension in saline) is 0 of 6 on day 15 and the survivor count (dose: 100.0 mg/kg/injection, schedule: Q04DX004 (sc), vehicle: suspension in saline) is recorded as 0 of 6 on day 15.
Take `CCC1(O)CC2CN(CCc3c([nH]c4ccccc34)C(C(=O)OC)(c3cc4c(cc3OC)N(C)C3C(O)(C(N)=O)C(O)C5(CC)C=CCN6CCC43C65)C2)C1` (centres undefined) (tested in a mixture with another compound): the survivor count (dose: 12.0 mg/kg/injection, schedule: Q04DX004 (sc), vehicle: water) was 1 of 6 on day 15 and 3 of 6 on day 15; the survivor count (dose: 24.0 mg/kg/injection, schedule: Q04DX004 (sc), vehicle: water) was 0 of 6 on day 15.
